Reference: patent US20110014209A1
No constants are given. Whether binding was seen depends on the method and setting. Some results given as binding are weak or reduced against the parent protein; the word gives no strength. Where a sequence is shown, tags or fusion partners need not be part of it.

Molecular target: T1, CD81 MBP-LEL (maltose-binding protein fused to the CD81 large extracellular loop, residues 113-201) (human) (UniProt P60033)
T1 sequence: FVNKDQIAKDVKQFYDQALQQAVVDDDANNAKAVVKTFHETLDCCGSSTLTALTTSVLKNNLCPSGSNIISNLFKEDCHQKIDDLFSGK
Assay: CD81 MBP-LEL ELISA, purified E2-his proteins, H53 detection

E2Δ2-his mature protein (from UniProt P27958 384-661)
binding: binds
